Laboratory results reported in the M2OR odorant receptor database.
Positions count from the first letter of the chain named. This is a selection; strong and weak results do not stand in their true shares. Calls are pooled over several reports, among them a noisy single-well screen.

Amino acid sequences for entries named in this document (tags omitted). Chains listed by the source or under a name are the forms on record and can include a tag or linker.
UniProt Q7TRA2, as listed by the source: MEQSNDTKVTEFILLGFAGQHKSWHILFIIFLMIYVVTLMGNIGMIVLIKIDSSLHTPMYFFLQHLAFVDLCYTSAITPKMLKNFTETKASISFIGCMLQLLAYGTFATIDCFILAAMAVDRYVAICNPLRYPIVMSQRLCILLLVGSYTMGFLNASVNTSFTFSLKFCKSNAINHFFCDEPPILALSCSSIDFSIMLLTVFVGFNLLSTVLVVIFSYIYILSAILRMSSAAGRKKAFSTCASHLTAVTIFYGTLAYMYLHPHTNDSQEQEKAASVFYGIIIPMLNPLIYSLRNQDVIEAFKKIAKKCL
UniProt Q7TR75, as listed by the source: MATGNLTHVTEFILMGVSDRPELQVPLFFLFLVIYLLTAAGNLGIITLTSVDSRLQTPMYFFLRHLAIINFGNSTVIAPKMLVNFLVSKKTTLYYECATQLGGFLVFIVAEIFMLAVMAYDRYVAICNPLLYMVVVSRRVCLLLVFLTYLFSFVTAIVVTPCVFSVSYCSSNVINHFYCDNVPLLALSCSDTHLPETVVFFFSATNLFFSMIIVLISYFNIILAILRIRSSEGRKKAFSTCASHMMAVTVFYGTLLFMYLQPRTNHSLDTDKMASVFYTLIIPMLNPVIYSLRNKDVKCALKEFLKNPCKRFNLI

Columns and labels:
Conditions in all cases: stereoisomer not certain
[1] = target: T1, UniProt Q3KPB0
T1 sequence (whole entry): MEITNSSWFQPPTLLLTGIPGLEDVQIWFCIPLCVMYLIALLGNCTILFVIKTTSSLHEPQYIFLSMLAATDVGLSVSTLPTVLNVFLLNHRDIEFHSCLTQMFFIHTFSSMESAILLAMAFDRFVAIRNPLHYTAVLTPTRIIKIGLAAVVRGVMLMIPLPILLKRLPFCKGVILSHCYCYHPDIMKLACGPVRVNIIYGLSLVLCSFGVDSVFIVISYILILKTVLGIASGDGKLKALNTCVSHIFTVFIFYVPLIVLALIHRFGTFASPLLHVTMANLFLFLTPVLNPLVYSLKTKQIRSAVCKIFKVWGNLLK
Summary of the method: (§1)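 Transient luciferase assays in mammalian cell lines were common, though methods varied by source. The values come from published papers and their supplementary material, with extra details from the original authors when needed. Responsive refers to a measured signal the original authors judged statistically different from baseline, and non-responsive (inactive) to the remainder.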

[2] = target: T2, UniProt Q3U0P3
T2 sequence (whole entry): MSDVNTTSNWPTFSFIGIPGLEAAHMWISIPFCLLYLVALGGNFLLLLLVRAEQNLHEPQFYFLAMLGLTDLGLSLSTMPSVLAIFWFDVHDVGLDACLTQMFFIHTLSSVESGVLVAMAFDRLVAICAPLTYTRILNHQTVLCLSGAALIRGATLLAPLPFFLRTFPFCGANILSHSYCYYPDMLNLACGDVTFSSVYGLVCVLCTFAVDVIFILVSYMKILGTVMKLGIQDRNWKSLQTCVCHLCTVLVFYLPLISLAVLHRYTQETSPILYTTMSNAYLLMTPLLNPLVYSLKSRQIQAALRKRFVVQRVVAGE
Summary of the method: as §1

[3] = target: T3, UniProt Q7TQU8
T3 sequence (whole entry): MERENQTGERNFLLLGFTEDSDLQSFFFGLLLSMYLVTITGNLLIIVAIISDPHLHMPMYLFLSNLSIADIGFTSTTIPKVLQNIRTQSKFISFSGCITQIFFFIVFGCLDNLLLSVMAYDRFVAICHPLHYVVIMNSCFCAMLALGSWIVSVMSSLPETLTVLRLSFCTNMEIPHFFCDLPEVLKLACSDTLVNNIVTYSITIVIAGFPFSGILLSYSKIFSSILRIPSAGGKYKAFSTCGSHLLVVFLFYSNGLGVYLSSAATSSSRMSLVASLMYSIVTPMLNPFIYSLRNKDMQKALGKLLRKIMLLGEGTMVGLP
Summary of the method: as §1

[4] = target: T4, UniProt Q7TR79
T4 sequence (whole entry): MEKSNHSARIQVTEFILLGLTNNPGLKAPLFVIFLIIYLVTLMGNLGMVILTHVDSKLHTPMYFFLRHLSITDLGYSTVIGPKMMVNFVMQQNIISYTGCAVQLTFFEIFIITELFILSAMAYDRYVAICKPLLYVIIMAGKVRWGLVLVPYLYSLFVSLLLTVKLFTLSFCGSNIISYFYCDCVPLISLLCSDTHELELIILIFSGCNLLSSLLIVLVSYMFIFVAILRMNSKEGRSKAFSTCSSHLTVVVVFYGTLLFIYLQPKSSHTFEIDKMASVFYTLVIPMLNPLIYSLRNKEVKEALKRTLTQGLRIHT
Summary of the method: as §1

[5] = target: T5, UniProt Q7TQV4
T5 sequence (whole entry): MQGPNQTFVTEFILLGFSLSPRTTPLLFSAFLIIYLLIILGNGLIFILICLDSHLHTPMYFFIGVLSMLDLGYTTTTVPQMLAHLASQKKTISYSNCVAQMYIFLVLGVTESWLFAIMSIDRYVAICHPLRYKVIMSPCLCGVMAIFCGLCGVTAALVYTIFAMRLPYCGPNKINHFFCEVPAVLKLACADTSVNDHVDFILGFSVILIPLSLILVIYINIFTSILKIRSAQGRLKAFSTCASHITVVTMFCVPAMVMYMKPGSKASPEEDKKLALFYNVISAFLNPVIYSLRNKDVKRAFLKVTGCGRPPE
Summary of the method: as §1

[6] = target: T6, UniProt Q7TR71
T6 sequence (whole entry): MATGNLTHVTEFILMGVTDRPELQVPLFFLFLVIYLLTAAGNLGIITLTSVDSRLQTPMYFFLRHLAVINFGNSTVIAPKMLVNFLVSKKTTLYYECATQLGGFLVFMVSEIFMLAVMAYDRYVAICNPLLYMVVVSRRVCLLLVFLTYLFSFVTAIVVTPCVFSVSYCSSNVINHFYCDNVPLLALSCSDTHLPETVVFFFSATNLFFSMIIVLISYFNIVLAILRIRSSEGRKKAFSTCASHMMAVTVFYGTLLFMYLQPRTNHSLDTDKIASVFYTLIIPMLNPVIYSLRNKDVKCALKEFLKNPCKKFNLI
Summary of the method: as §1

[7] = target: T7, UniProt Q7TRA1
T7 sequence (whole entry): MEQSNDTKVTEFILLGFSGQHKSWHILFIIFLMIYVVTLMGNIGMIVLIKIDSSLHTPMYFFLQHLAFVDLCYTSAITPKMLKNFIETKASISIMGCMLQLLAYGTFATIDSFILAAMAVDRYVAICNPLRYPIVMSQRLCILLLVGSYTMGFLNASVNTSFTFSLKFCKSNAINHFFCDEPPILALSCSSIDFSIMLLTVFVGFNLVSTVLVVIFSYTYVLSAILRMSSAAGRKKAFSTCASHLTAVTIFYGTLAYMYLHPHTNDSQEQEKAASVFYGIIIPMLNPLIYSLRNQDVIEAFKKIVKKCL
Summary of the method: as §1

[8] = target: T8, UniProt Q7TRA2
T8 sequence (whole entry): T7 sequence (whole entry) with S18A, I86T, I94F, M95I, S112C, V208L, T219I, V221I, V305A
Summary of the method: as §1

[9] = target: T9, UniProt Q7TRA3
T9 sequence (whole entry): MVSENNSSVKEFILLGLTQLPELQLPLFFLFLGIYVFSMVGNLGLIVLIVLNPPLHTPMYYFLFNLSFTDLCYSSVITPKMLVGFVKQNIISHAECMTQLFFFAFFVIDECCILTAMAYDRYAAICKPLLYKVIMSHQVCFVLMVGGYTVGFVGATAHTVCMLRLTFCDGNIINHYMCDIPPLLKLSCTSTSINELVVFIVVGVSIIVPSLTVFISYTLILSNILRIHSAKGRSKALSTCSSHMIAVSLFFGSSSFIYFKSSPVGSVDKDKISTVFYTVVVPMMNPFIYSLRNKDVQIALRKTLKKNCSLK
Summary of the method: as §1

[10] = target: UniProt Q7TR75
Summary of the method: as §1
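Note: active if original authors judged signal statistically different from baseline.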

SMILES	odorant receptor agonist call [1]	odorant receptor agonist call [2]	odorant receptor agonist call [3]	odorant receptor agonist call [4]	odorant receptor agonist call [5]	odorant receptor agonist call [6]	odorant receptor agonist call [7]	odorant receptor agonist call [8]	odorant receptor agonist call [9]	odorant receptor agonist call [10]
O=C1CCCCCCCCCCCCCCO1	inactive	inactive	inactive	inactive						
CCCCCCCCC=O	inactive	inactive	inactive	inactive	inactive	inactive	inactive	active	inactive	
C=CCc1ccc(OC)c(OC)c1	inactive	inactive	inactive	inactive						
CC(C)C=O	inactive	inactive	inactive	inactive						
CC(C)CC(=O)O	inactive	inactive	inactive	inactive						
c1cnccn1	inactive	inactive	inactive	inactive						
CCCCCC(=O)O	inactive	inactive	inactive	inactive	inactive	inactive			inactive	
C=CC(C)(O)CCC=C(C)C (configuration not stated)	inactive	inactive	inactive	inactive						
CCCCCC(C)=O	inactive	inactive	inactive	inactive	inactive	inactive			inactive	
COC(=O)c1ccccc1O	active	inactive	inactive	inactive						
CC(C)=CCCC(C)=CC=O	inactive	inactive	inactive	inactive			inactive	active		
CCCCCCCCCC=O	inactive	inactive	inactive	inactive	inactive	inactive			inactive	
COc1cc(C=O)ccc1O	inactive	inactive	inactive	inactive						
C=CCc1ccc(O)c(OC)c1	inactive	inactive	inactive	inactive						
CC12CCC(CC1)C(C)(C)O2	inactive	inactive	inactive	inactive						
CC1COCc2cc3c(cc21)C(C)(C)C(C)C3(C)C (configuration not stated)	inactive	inactive	inactive	inactive						
CCCCCCCC=O	inactive	inactive	inactive	inactive	inactive	inactive			inactive	
CC12CCC(C1)C(C)(C)C2=O (configuration not stated)					inactive	inactive			inactive	
CCCCCOC(C)=O	inactive	inactive	inactive	inactive						
CC(=O)c1ccccc1	inactive	inactive	inactive	inactive	active	active	inactive	inactive	active	active
CC(=O)OC1CC2CCC1(C)C2(C)C (configuration not stated)	inactive	inactive	inactive	inactive						
CCCCCCC=O	inactive	inactive	inactive	inactive	inactive	inactive			inactive	
C=C(C)C1CC=C(C)C(=O)C1 (configuration not stated)	inactive	inactive	inactive	inactive	inactive	inactive	active	active	inactive	inactive
CC(=O)C(C)=O	inactive	inactive	inactive	inactive						
COc1ccccc1O	inactive	inactive	inactive	inactive						
CC(C)(O)CCCC1=CCC(C=O)CC1 (configuration not stated)	inactive	inactive	inactive	inactive	inactive	inactive			inactive	
CCCCO	inactive	inactive	inactive	inactive						
O=C1CCCCC1					active	active			inactive	

Ordered by length of the SMILES (high to low): part of the list above.
SMILES	odorant receptor agonist call [1]	odorant receptor agonist call [2]	odorant receptor agonist call [3]	odorant receptor agonist call [4]	odorant receptor agonist call [5]	odorant receptor agonist call [6]	odorant receptor agonist call [7]	odorant receptor agonist call [8]	odorant receptor agonist call [9]	odorant receptor agonist call [10]
CC12CCC(C1)C(C)(C)C2=O (configuration not stated)					inactive	inactive			inactive	
CC12CCC(CC1)C(C)(C)O2	inactive	inactive	inactive	inactive						
CC(=O)c1ccccc1	inactive	inactive	inactive	inactive	active	active	inactive	inactive	active	active
CCCCCCCCCC=O	inactive	inactive	inactive	inactive	inactive	inactive			inactive	
COc1ccccc1O	inactive	inactive	inactive	inactive						
CCCCCCCC=O	inactive	inactive	inactive	inactive	inactive	inactive			inactive	
c1cnccn1	inactive	inactive	inactive	inactive						
